Values from PubChem BioAssay AID1224828 (NIAID, 2016).
The deposit covers about 17,000 reagents; this is a part drawn at random. 762 of them (4.5%) were called active. 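Active calls include both raised and lowered p65 entry, mostly lowered; wells with fewer than 50 cells lack a z-score.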 The raw values are shown without normalisation.

- Test: 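Find genes required for NF-kappaB p65 moving into the nucleus after LPS in mouse macrophages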 (primary screen)
- System: mouse RAW264.7 G9 macrophage reporter cells (GFP-p65, Tnf promoter-mCherry)
- Knock-down reagent: siRNA pool against mouse genes, 100 nM
- Time to read-out: 2 days siRNA transfection, then 40 min LPS before fixation
- Treatment: LPS (Salmonella minnesota R595) at 10 ng/ml
- Detection: 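Imaged p65 nuclear translocation ratio, normalised to the plate median, converted to robust z-scores and averaged across two replicates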
- Reading the numbers: p65 translocation robust z-score: higher = more nuclear NF-kappaB p65 after LPS than the plate median; nuclear/cytoplasmic p65 ratio: higher = more nuclear NF-kappaB p65
- Hit rule: 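Active if robust z is above 3.3 (negative regulators) or below -1.56, the Tlr4 control median (positive regulators); activity score 50 or more; control wells not called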
- Calls: active = hit (p65 shift raised or lowered); inactive = no clear change

gene | p65 translocation robust z-score | nuclear/cytoplasmic p65 ratio, rep 1 | nuclear/cytoplasmic p65 ratio, rep 2 | low cell count flag | Outcome
Stk33 (serine/threonine kinase 33) | -0.25 | 1.7 | 1.35 | enough cells to score | inactive
Lpgat1 (lysophosphatidylglycerol acyltransferase 1) | -1.16 | 1.3 | 1.77 | enough cells to score | inactive
Tcerg1 (transcription elongation regulator 1 (CA150)) | -0.04 | 1.54 | 1.49 | enough cells to score | inactive
Cdc25a (cell division cycle 25A) | 0.11 | 1.61 | 1.39 | enough cells to score | inactive
4932407I05 | – | 1.24 | 1.33 | fewer than 50 cells per well; well left out of scoring | inactive
Samhd1 (SAM domain and HD domain, 1) | – | 1.51 | 1.22 | fewer than 50 cells per well; well left out of scoring | inactive
Kcnu1 (potassium channel, subfamily U, member 1) | -0.2 | 1.49 | 1.43 | enough cells to score | inactive
Smarca4 | 0.33 | 1.56 | 1.64 | enough cells to score | inactive
Tenm4 (teneurin transmembrane protein 4) | -1.64 | 1.56 | 1.21 | enough cells to score | active

The list goes on; the last 3 above are carried over.
gene | p65 translocation robust z-score | nuclear/cytoplasmic p65 ratio, rep 1 | nuclear/cytoplasmic p65 ratio, rep 2 | low cell count flag | Outcome
Kcnu1 (potassium channel, subfamily U, member 1) | -0.2 | 1.49 | 1.43 | enough cells to score | inactive
Smarca4 | 0.33 | 1.56 | 1.64 | enough cells to score | inactive
Tenm4 (teneurin transmembrane protein 4) | -1.64 | 1.56 | 1.21 | enough cells to score | active
Dmap1 (DNA methyltransferase 1-associated protein 1) | 1.75 | 1.87 | 1.43 | enough cells to score | inactive
Rnf215 (ring finger protein 215) | -0.95 | 1.41 | 1.31 | enough cells to score | inactive
Cacna1d (calcium channel, voltage-dependent, L type, alpha 1D subunit) | -0.37 | 1.55 | 1.57 | enough cells to score | inactive
Gpc5 (glypican 5) | -0.52 | 1.58 | 1.45 | enough cells to score | inactive
Srsf2 (serine and arginine-rich splicing factor 2) | -0.7 | 1.42 | 1.48 | enough cells to score | inactive
Adh7 (alcohol dehydrogenase 7 (class IV), mu or sigma polypeptide) | 0.04 | 1.62 | 1.63 | enough cells to score | inactive
Saraf (store-operated calcium entry-associated regulatory factor) | – | 1.7 | 1.67 | fewer than 50 cells per well; well left out of scoring | inactive
Trpv6 | 0.46 | 1.57 | 1.58 | enough cells to score | inactive
Rxrb (retinoid X receptor beta) | -1.08 | 1.33 | 1.4 | enough cells to score | inactive
Or4e2 (olfactory receptor family 4 subfamily E member 2) | -0.26 | 1.5 | 1.45 | enough cells to score | inactive
Numbl (numb-like) | -0.31 | 1.81 | 1.36 | enough cells to score | inactive
Pgls (6-phosphogluconolactonase) | -1.31 | 1.16 | 1.09 | enough cells to score | inactive
Ugt3a2 (UDP glycosyltransferases 3 family, polypeptide A2) | -1.47 | 1.33 | 1.51 | enough cells to score | inactive
Mtres1 (mitochondrial transcription rescue factor 1) | – | 1.31 | 1.44 | fewer than 50 cells per well; well left out of scoring | inactive
Col9a1 (collagen, type IX, alpha 1) | 0.38 | 1.54 | 1.42 | enough cells to score | inactive
